Laboratory results from PubChem BioAssay AID248 (DTP/NCI, 2004).
The list does not hold the whole screen: it gathers tests that were run many times, whatever their T/C, doses with no T/C, and many T/C values between a quarter and a half above the control. Further doses and runs are listed elsewhere. T/C: endpoint of the treated group in % of that of the vehicle group. Some entries give survivors of the animals treated and no T/C: the source holds a T/C of zero for them, seemingly a mark for toxic or unscored doses. Some survivor counts are full or nearly so, which does not show that the dose was tolerated: survival well below the control is almost never listed, so the zero probably covers shortened survival too. Counts of survivors are from the toxicity check (mostly the fifth day) where no day follows; animals may have died later. Schedules are NCI's codes, read here as Q, the interval in days (D) or hours (H), X, the number of doses. Where survival is the endpoint, this PubChem deposit counts one and a half times the control or more as active, and values a quarter to a half above the control carry no call in these data; other NCI protocols may use other cut-offs. Some doses were run more than once; the values are given in rising order. Some T/C values carry the count of animals alive at the toxicity check (mostly the fifth day); without a count, all were alive then.

System: L1210 leukemia ip in BDF1 mice, survival T/C
Assay: NCI In Vivo Anticancer Drug Screen. Data for tumor model L1210 Leukemia (intraperitoneal) in B6D2F1 (BDF1) mice
Details: T/C endpoint: mean survival time, higher T/C = longer survival
[1] = dose: 31.0 mg/kg/injection, schedule: Q01DX015 (ip), vehicle: carboxymethylcellulose (CMC)

Nc1nc(=S)c2ncn(C3CC(O)C(CO)O3)c2[nH]1 (stereo not drawn)
T/C (dose: 0.16 mg/kg/injection, schedule: Q03HX024 (ip), vehicle: saline): 147 % of control | T/C (dose: 0.31 mg/kg/injection, schedule: Q01DX015 (ip), vehicle: carboxymethylcellulose (CMC)): 145 % of control | T/C (dose: 0.32 mg/kg/injection, schedule: Q03HX008 (ip), vehicle: saline): 140 % of control | T/C (dose: 0.32 mg/kg/injection, schedule: Q03HX024 (ip), vehicle: saline): 144 % of control | T/C (dose: 0.6 mg/kg/injection, schedule: Q01DX009 (ip), vehicle: saline with Tween-80): 145 % of control | T/C (dose: 0.62 mg/kg/injection, schedule: Q01DX005 (ip), vehicle: clinical formulation): 144 % of control | T/C (dose: 0.62 mg/kg/injection, schedule: Q01DX005 (ip), vehicle: saline): 140 % of control | T/C (dose: 0.62 mg/kg/injection, schedule: Q01DX005 (ip), vehicle: water): 144 % of control | T/C (dose: 0.62 mg/kg/injection, schedule: Q03HX016 (ip), vehicle: saline): 145 % of control | T/C (dose: 0.63 mg/kg/injection, schedule: Q01DX015 (ip), vehicle: carboxymethylcellulose (CMC)): 129 % of control | T/C (dose: 0.63 mg/kg/injection, schedule: Q03HX016 (ip), vehicle: saline): 146 % of control [9 of 10 alive] | T/C (dose: 1.25 mg/kg/injection, schedule: Q01DX015 (ip), vehicle: carboxymethylcellulose (CMC)): 149 % of control | T/C (dose: 1.25 mg/kg/injection, schedule: Q04DX003 (ip), vehicle: saline): 135 % of control | T/C (dose: 1.35 mg/kg/injection, schedule: Q01DX009 (ip), vehicle: saline with Tween-80): 147 % of control | T/C (dose: 2.0 mg/kg/injection, schedule: Q01DX009 (ip), vehicle: saline with Tween-80): 132 % of control | T/C (dose: 2.5 mg/kg/injection, schedule: Q03HX024 (ip), vehicle: saline): 125 % of control | T/C (dose: 3.0 mg/kg/injection, schedule: Q01DX009 (ip), vehicle: saline with Tween-80): 146 % of control | T/C (dose: 3.75 mg/kg/injection, schedule: Q01DX015 (ip), vehicle: carboxymethylcellulose (CMC)): 127 % of control | T/C (dose: 5.0 mg/kg/injection, schedule: Q01DX001 (ip), vehicle: saline): 128 % of control | T/C (dose: 5.0 mg/kg/injection, schedule: Q01DX002 (ip), vehicle: Klucel (hydroxypropylcellulose) (HPC)): 139 % of control | T/C (dose: 5.0 mg/kg/injection, schedule: Q03HX008 (ip), vehicle: saline): 145 % of control | T/C (dose: 5.0 mg/kg/injection, schedule: Q03HX016 (ip), vehicle: saline): 133 % of control | T/C (dose: 5.0 mg/kg/injection, schedule: Q04DX003 (ip), vehicle: Klucel (hydroxypropylcellulose) (HPC)): 136 % of control | T/C (dose: 5.0 mg/kg/injection, schedule: Q08DX002 (ip), vehicle: saline): 141 % of control | T/C (dose: 5.4 mg/kg/injection, schedule: Q01DX015 (ip), vehicle: carboxymethylcellulose (CMC)): 137 % of control | T/C (dose: 6.25 mg/kg/injection, schedule: Q01DX009 (ip), vehicle: saline): 145 % of control | T/C (dose: 7.1 mg/kg/injection, schedule: Q01DX015 (ip), vehicle: carboxymethylcellulose (CMC)): 137 % of control | T/C (dose: 9.5 mg/kg/injection, schedule: Q01DX015 (ip), vehicle: carboxymethylcellulose (CMC)): 134 % of control | T/C (dose: 10.0 mg/kg/injection, schedule: Q01DX001 (ip), vehicle: saline): 135 % of control | T/C (dose: 10.0 mg/kg/injection, schedule: Q01DX002 (ip), vehicle: Klucel (hydroxypropylcellulose) (HPC)): 138 % of control | survivor count (dose: 10.0 mg/kg/injection, schedule: Q03HX016 (ip), vehicle: saline): 10 of 10 | T/C (dose: 12.5 mg/kg/injection, schedule: Q01DX005 (ip), vehicle: saline): 142 and 144 % of control | T/C (dose: 12.5 mg/kg/injection, schedule: Q01DX009 (ip), vehicle: saline): 145 % of control | T/C (dose: 12.65 mg/kg/injection, schedule: Q01DX015 (ip), vehicle: carboxymethylcellulose (CMC)): 146 % of control | T/C (dose: 16.85 mg/kg/injection, schedule: Q01DX015 (ip), vehicle: carboxymethylcellulose (CMC)): 137 % of control | T/C (dose: 20.0 mg/kg/injection, schedule: Q01DX001 (ip), vehicle: saline): 141 % of control | T/C (dose: 20.0 mg/kg/injection, schedule: Q04DX003 (ip), vehicle: Klucel (hydroxypropylcellulose) (HPC)): 132 % of control | T/C (dose: 22.5 mg/kg/injection, schedule: Q01DX015 (ip), vehicle: carboxymethylcellulose (CMC)): 132 % of control | T/C (dose: 24.0 mg/kg/injection, schedule: Q01DX005 (oral), vehicle: saline): 134 % of control | T/C (dose: 30.0 mg/kg/injection, schedule: Q01DX015 (ip), vehicle: carboxymethylcellulose (CMC)): 140 % of control | T/C (dose: 30.0 mg/kg/injection, schedule: Q04DX003 (oral), vehicle: saline): 136 % of control | T/C [1]: 138 % of control | survivor count [1]: 6 of 6
